Reference: article PMC4637209
Results are given in words; binding and its absence hold for the method and conditions named. Binding seen in cells or lysates may run through a third protein. Some results given as binding are weak or reduced against the parent protein; the word gives no strength. For some assays here: Sequences can lack the tags named with a protein. Values belong to the molecule of their own block, whether it stands above or below them.

Chains of the proteins cited; added tags and fusions are not shown.
UniProt P56524: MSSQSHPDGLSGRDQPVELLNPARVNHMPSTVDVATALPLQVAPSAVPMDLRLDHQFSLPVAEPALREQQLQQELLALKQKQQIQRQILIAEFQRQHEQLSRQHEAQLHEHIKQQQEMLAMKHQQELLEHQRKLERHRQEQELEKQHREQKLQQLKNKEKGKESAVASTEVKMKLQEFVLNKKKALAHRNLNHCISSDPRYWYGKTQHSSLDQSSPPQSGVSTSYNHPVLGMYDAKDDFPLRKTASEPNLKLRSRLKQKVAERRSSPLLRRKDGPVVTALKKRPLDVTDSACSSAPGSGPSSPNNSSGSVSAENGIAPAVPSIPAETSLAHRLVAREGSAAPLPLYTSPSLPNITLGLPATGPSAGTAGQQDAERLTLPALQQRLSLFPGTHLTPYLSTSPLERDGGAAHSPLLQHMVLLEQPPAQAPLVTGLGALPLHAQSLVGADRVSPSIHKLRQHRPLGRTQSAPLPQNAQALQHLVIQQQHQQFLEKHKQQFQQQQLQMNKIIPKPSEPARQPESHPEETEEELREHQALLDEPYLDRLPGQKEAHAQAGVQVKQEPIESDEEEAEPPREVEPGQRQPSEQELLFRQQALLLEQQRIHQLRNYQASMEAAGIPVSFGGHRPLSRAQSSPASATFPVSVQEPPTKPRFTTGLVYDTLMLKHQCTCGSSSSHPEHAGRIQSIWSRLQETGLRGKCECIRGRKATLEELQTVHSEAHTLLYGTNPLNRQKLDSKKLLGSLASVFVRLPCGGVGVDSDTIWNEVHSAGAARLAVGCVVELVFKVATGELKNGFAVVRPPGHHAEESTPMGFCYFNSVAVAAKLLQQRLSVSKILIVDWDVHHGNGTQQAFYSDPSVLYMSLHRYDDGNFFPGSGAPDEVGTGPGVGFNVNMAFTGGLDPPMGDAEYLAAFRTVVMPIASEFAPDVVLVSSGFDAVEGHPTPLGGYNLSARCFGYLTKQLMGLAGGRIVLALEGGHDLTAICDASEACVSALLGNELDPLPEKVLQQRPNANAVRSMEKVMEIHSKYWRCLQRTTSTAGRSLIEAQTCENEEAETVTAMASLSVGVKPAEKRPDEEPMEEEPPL
UniProt Q6NZM9: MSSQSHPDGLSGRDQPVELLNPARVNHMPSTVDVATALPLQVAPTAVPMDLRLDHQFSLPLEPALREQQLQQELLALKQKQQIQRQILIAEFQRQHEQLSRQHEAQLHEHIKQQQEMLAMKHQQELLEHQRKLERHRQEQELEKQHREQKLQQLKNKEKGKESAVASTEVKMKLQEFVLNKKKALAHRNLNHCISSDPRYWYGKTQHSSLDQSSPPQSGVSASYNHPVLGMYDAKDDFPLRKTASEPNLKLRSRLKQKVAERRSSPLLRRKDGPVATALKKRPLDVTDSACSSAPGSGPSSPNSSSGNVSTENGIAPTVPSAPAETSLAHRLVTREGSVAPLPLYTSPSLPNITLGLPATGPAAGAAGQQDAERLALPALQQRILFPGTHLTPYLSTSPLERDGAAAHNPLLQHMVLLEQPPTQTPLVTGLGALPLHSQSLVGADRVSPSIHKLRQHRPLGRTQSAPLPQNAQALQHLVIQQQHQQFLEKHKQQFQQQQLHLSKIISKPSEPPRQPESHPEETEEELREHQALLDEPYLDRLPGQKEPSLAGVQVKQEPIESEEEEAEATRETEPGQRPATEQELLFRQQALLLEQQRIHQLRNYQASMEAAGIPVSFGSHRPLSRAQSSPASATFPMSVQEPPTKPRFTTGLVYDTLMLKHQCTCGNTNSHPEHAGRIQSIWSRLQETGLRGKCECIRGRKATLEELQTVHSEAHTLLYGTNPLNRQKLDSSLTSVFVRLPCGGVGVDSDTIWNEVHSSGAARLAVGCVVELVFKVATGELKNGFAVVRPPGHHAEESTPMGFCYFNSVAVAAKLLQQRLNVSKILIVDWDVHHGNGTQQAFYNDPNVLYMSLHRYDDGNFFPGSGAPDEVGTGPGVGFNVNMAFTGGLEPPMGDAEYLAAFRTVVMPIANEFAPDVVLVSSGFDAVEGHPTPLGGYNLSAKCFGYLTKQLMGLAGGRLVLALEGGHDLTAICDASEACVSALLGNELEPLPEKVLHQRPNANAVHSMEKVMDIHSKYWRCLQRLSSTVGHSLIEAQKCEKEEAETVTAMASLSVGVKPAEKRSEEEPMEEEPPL

Tests used:
[1] = molecular target: T1, microtubule-associated protein 1S (MAP1S), endogenous in mouse brain tissue and N2a cells (mouse (endogenous in brain tissue and N2a)) (UniProt Q8C052); assay: co-IP; lysates from brain tissues of wild-type and MAP1S-/- mice or from N2a cells, endogenous proteins, precipitated with antibody against HDAC4 or MAP1S or IgG control
T1 sequence: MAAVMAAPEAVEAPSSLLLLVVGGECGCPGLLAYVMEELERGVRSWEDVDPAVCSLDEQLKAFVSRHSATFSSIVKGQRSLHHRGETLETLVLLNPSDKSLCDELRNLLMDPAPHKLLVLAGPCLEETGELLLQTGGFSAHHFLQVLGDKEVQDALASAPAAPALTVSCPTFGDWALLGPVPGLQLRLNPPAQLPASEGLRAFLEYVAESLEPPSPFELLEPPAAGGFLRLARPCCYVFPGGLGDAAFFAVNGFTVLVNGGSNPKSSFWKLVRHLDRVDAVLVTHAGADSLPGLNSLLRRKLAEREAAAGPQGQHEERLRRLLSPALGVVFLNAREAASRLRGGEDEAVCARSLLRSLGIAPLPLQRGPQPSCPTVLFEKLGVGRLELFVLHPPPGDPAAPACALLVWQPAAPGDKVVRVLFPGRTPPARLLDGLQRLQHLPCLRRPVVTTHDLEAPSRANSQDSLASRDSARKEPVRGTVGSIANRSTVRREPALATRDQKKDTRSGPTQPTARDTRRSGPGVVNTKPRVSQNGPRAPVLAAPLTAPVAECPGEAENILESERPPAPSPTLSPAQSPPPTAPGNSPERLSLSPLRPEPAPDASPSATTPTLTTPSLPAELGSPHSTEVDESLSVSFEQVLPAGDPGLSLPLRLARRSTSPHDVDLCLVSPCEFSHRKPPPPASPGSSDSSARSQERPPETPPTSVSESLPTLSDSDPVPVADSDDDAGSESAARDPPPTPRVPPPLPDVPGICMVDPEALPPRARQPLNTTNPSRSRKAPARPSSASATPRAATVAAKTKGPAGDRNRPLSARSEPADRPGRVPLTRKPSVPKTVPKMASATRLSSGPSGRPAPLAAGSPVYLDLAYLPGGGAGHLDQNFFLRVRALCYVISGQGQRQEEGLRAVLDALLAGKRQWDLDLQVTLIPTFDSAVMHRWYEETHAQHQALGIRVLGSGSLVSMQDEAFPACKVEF

[2] = molecular target: histone deacetylase 4 (HDAC4), endogenous in HeLa cells (human (endogenous in HeLa)) (UniProt P56524); assay: co-IP; competition: equal amounts of lysates from HeLa cells expressing control HA, HBD or HA-HBDΔ, precipitated with HDAC4-specific antibody; endogenous MAP1S blotted and quantified

binding [1]: binds
Molecule: histone deacetylase 4 (HDAC4), endogenous in mouse brain tissue and N2a cells (from UniProt Q6NZM9 1-1076) (enzyme)

binding [2]: binds
B1: HA-tagged MAP1S R653-Q855 fragment, HDAC4-binding domain (HA-HBD) (domain or fragment, UniProt Q66K74 653-855)
chain: RLSLSPLRGGEAGPDASPTVTTPTVTTPSLPAEVGSPHSTEVDESLSVSFEQVLPPSAPTSEAGLSLPLRGPRARRSASPHDVDLCLVSPCEFEHRKAVPMAPAPASPGSSNDSSARSQERAGGLGAEETPPTSVSESLPTLSDSDPVPLAPGAADSDEDTEGFGVPRHDPLPDPLKVPPPLPDPSSICMVDPEMLPPKTARQ
